According to the supplement of paper PMC12067093, “Discovery and optimisation of a covalent ligand for TRIM25 and its application to targeted protein ubiquitination” (Chemical Science, 2025):
Some of the results follow.

Compound: Cc1cc(ccc1-c1ccccc1)C(=O)N1CCCN(CC1)C(=O)CCl [compound 10]
Experiment: probe-labelled cysteine peptide fold change vs DMSO (competition) (log2 fold change); higher = less target engagement (more negative = stronger competition)
Conditions: THP-1, incubation time: 4 h
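Also: competitive profiling in live THP-1 cells: cysteine peptides tagged with an iodoacetamide desthiobiotin (IA-DTB) probe, intensity after compound treatment relative to DMSO-treated cells.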

Target	probe-labelled cysteine peptide fold change (10 µM)	probe-labelled cysteine peptide fold change (50 µM)
PTK2B_Q14289_298_QLTSQDAKPTCLAEFK (UniProt Q14289)	-0.2	-0.298
PSMC6_P62333_170_GCLLYGPPGTGK (UniProt P62333)	-0.021	0.0529
PSTPIP2_Q9H939_221_ACEAFEAQECER (UniProt Q9H939)	0.0423	0.0945
PTPRS_Q13332_107_DENVYECVAQNSVGEITVHAK (UniProt Q13332)	0.185	-0.167
PSMD14_O00487_299_HLEEHVDVLMTSNIVQCLAAMLDTVVFK (UniProt O00487)	0.0884	-0.534
PSMD6_Q15008_112_AEYLCR (UniProt Q15008)	-0.153	0.127
PSMD1_Q99460_571_MEEADALIESLCR (UniProt Q99460)	-0.0968	0.129
PTPRE_P23469_630_QQQQTGNHPITVHCSAGAGR (UniProt P23469)	0.208	0.226
PTK2B_Q14289_677_FTELVCSLSDVYQMEK (UniProt Q14289)	0.0567	-0.0135
PTPN11_Q06124_333_SYIATQGCLQNTVNDFWR (UniProt Q06124)	0.199	0.299
PSMC4_P43686_210_GVLMYGPPGCGK (UniProt P43686)	0.0201	-0.0462
PUM1_Q14671_234_SESGGLGVSMVEYVLSSSPGDSCLRK (UniProt Q14671)	-0.247	-0.399
PSMC2_P35998_270_KACLIFFDEIDAIGGAR (UniProt P35998)	0.0505	-0.746
PTPN6_P29350_361_CVPYWPEVGMQR (UniProt P29350)	0.0529	-0.0356
PTPN1_P18031_32_HEASDFPCR (UniProt P18031)	0.0814	0.0973
PSMB3_P49720_19_NCVAIAADR (UniProt P49720)	-0.109	0.229
PSMD13_Q9UNM6_276_KIQLLCLMEMTFTR (UniProt Q9UNM6)	-0.295	0.385
PTK2B_Q14289_352_TSSLAEAENMADLIDGYCR (UniProt Q14289)	0.255	0.131
PTBP3_O95758_55_RDRPPCSPSR (UniProt O95758)	0.0429	0.226
PSMC3_P17980_396_CTDDFNGAQCK (UniProt P17980)	0.0919	0.0476
PTPRC_P08575_762_CAEYWPSMEEGTR (UniProt P08575)	-0.296	-0.129

6 entries from above, in CSV form:
Target,probe-labelled cysteine peptide fold change (10 µM),probe-labelled cysteine peptide fold change (50 µM)
PTPRS_Q13332_107_DENVYECVAQNSVGEITVHAK (UniProt Q13332),0.185,-0.167
PSMD14_O00487_299_HLEEHVDVLMTSNIVQCLAAMLDTVVFK (UniProt O00487),0.0884,-0.534
PSMD6_Q15008_112_AEYLCR (UniProt Q15008),-0.153,0.127
PSMD1_Q99460_571_MEEADALIESLCR (UniProt Q99460),-0.0968,0.129
PTPRE_P23469_630_QQQQTGNHPITVHCSAGAGR (UniProt P23469),0.208,0.226
PTK2B_Q14289_677_FTELVCSLSDVYQMEK (UniProt Q14289),0.0567,-0.0135
